These are yes or no findings as the source states them, for the method shown. Binding seen in cells or lysates may run through a third protein. Some binding calls cover weakened binding; strength is not graded here.
Experiments:
Test in all cases: proximity ligation
[1] = biological target: HCV NS3, JFH1 (Hepatitis C virus (JFH1)) (UniProt Q99IB8)
[2] = biological target: HCV NS4B, JFH1 (Hepatitis C virus (JFH1)) (UniProt Q99IB8)
[3] = biological target: HCV NS5A, JFH1 (Hepatitis C virus (JFH1)) (UniProt Q99IB8)

Protein sequences, listed by entry. Tags and fused reporters are not part of them. Lines headed by an entry give the natural chain unless they say otherwise; changes in a name come on top. Residues count along the entry.
HCV NS3, JFH1 (Hepatitis C virus (JFH1)) (Q99IB8, residues 1031-1661): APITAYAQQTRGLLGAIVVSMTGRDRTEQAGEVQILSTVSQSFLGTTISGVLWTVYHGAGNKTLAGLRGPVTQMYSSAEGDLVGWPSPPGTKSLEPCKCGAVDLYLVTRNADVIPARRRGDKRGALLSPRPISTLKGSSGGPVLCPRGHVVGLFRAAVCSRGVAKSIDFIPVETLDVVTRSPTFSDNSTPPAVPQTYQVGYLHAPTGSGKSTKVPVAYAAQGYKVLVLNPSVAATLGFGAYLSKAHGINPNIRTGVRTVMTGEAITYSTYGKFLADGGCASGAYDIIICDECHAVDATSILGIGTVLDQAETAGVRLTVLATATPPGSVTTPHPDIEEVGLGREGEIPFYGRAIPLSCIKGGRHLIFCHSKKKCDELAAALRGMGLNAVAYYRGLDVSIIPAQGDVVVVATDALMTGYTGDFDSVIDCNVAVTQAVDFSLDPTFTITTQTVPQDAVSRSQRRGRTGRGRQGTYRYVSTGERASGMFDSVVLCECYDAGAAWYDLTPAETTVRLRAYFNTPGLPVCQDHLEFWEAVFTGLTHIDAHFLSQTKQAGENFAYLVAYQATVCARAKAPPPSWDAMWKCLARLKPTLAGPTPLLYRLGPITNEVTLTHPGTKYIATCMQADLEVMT
HCV NS4B, JFH1 (Hepatitis C virus (JFH1)) (Q99IB8, residues 1716-1976): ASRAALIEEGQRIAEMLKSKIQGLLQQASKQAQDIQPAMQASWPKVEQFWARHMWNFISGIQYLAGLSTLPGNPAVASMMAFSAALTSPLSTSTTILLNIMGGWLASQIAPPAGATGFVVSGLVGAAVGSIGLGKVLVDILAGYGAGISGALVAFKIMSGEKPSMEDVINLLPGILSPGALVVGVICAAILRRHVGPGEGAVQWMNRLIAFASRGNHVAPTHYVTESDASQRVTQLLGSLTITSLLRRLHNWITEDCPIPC
HCV NS5A, JFH1 (Hepatitis C virus (JFH1)) (Q99IB8, residues 1977-2442): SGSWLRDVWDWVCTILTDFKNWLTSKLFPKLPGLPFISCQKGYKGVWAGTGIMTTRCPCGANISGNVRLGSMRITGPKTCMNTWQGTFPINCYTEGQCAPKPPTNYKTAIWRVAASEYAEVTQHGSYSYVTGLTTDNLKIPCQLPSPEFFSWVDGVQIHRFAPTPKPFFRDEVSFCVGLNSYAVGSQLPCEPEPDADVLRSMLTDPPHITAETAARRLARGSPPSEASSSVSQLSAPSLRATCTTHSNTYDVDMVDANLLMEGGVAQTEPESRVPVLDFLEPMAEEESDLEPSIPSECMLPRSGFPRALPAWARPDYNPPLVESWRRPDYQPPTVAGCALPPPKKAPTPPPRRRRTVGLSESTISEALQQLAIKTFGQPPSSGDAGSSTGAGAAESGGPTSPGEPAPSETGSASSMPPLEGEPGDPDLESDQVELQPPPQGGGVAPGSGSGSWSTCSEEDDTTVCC
UniProt Q9H1Y0: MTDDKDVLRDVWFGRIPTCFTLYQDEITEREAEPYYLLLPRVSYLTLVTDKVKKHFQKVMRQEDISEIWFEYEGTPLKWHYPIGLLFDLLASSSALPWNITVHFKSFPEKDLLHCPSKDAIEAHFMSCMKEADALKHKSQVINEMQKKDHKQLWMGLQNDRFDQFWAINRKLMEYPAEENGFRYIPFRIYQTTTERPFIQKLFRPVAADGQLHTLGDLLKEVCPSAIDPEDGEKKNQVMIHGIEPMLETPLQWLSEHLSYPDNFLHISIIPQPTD
UniProt Q676U5: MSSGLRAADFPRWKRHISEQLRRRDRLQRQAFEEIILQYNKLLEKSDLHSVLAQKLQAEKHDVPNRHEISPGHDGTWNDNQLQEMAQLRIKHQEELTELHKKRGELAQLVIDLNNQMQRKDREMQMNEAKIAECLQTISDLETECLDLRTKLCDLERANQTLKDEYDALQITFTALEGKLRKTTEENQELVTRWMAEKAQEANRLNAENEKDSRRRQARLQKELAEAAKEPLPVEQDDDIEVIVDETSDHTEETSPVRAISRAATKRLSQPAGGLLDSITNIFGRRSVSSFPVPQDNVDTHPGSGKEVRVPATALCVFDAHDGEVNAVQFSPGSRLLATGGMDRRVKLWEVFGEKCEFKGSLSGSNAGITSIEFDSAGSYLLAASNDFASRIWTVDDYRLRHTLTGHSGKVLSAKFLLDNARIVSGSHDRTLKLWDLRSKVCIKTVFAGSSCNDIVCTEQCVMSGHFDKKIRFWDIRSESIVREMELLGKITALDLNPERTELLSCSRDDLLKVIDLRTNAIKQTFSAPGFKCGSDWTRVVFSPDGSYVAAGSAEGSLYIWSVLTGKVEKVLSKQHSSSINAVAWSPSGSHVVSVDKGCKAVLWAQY

Substance	binding [1]	binding [2]	binding [3]
ATG5-12 conjugate (from UniProt Q9H1Y0 1-275; O94817 1-140) (complex)	binds	binds	binds
ATG16L1 (from UniProt Q676U5 1-607)	no binding		no binding

— article PMC6171931
